Here are results for one compound from PubChem BioAssay AID240 (DTP/NCI, 2004).

The list shows only some results of the screen, not a fair sample: it is rich in T/C values a quarter to a half above the control, in often repeated tests (any T/C) and in doses without a T/C. Further doses and runs are listed elsewhere. T/C gives the treated animals as a percentage of the vehicle group. Some entries give survivors of the animals treated and no T/C: the source holds a T/C of zero for them, seemingly a mark for toxic or unscored doses. Some survivor counts are full or nearly so, which does not show that the dose was tolerated: the source hardly ever lists a survival T/C far under the control, and the zero likely stands for such cases as well. Survivors were counted at the toxicity check, usually on the fifth day, unless a day is given; later deaths do not show. Schedules are NCI's codes, read here as Q, the interval in days (D) or hours (H), X, the number of doses.

In the experiment the test system is Lymphoma 4 ip in BDF1 mice, median survival. As to the kind of experiment: NCI In Vivo Anticancer Drug Screen. Data for tumor model Lymphoma 4 (intraperitoneal) in B6D2F1 (BDF1) mice. As to conditions: T/C endpoint: median survival time; dose: 40.0 mg/kg/injection; schedule: Q01DX010 (ip); vehicle: saline; higher T/C = longer survival. On the procedure: The antitumor activity of compounds was measured in mice bearing transplantable tumors. Survival or tumor size were measured and the results are expressed as the measurement made in the treated group (T) divided by the measurement made in the vehicle treated control group (C). The tumor model used in this assay is Lymphoma 4 (intraperitoneal) in B6D2F1 (BDF1) mice

As to `C[C@@H]1C[C@@H]([C@H](O)CC2CC(=O)NC(=O)C2)C(=O)[C@@H](C)C1`, the survivor count is given as 5 of 6.
